Data: US20150018228A1, “ENZYME DETECTION BY MICROFLUIDICS” (priority 2011, published 2015)

Legend:
[1] = biological target: T1, human topoisomerase I (hTopI) (Homo sapiens) (UniProt P11387); test: activity assay; settings: no circularization by REEAD; purified recombinant protein; folded or branched DNA
T1 sequence (looked up, limits assumed): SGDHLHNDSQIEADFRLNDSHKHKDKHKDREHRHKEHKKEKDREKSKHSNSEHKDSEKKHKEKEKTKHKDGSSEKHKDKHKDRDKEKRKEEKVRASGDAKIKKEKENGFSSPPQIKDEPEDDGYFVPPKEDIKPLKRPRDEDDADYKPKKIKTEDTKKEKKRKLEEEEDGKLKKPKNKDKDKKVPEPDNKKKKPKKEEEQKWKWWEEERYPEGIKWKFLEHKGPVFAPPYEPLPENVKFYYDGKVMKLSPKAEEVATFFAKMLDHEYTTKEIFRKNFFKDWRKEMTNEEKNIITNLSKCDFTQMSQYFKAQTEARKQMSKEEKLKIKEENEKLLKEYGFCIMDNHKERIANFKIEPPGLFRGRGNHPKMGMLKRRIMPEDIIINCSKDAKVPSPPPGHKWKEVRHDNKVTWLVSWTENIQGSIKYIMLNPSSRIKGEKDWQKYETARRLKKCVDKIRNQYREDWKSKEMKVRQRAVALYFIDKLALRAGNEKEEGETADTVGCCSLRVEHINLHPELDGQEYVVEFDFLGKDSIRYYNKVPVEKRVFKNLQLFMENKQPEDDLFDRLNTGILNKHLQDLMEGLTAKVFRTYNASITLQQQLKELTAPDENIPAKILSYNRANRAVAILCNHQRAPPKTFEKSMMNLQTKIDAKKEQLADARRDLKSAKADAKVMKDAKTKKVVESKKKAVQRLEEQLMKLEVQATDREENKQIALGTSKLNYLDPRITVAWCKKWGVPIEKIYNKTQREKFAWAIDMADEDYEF

[2] = biological target: T2, human topoisomerase I (endogenous, HEK293 cells) (Homo sapiens) (UniProt P11387); test: activity assay; settings: protein in an extract, folded or branched DNA
T2 sequence (looked up, limits assumed): T1 sequence (looked up, limits assumed)

[3] = biological target: T1, human topoisomerase I (hTopI) (Homo sapiens); test: enzyme reaction in vitro; settings: cleaves classical hexadecameric site only, not the additional downstream sites near the 3'-end; same conditions; purified recombinant protein; label: 5'-32P on OL62

Sequence | activity on this sequence [1] | also measured
CATACATTATACGAAGTTATGAGCGTCTGAGTATGACTGTGAAGATCGCTTATCAGTGAATGCGAGTCCGTCTACTCATACTCAGACGCTCATAACTTCGTATAATGT [pfTopI(S2)] | not active | –
ATTATAATTTTTTGGAACTTCGAACGACTCAGAATGACTGTGAAGATCGCTTATCCTCAATGCACATGTTTGGCTCCCATTCTGAGTCGTTCGAAGTTCCAAAAAATT [pfTopI(S3)] | not active | –
AGAAAAATTTTTAAAAAAACTGTGAAGATCGCTTATTTTTTTAAAAATTTTTCTAAGTCTTTTAGATCCCTCAATGCTGCTGCTGTACTACGATCTAAAAGACTTAGA [S(TopI)] | – | activity on this sequence ([2]; 3'-amine (as printed in sequence list), circularization by REEAD in HEK293 lysate droplets and HEK293T nuclear extract): active
TCTAGAAAGTATAGGAACTTCGAACGACTCAGAATGACTGTGAAGATCGCTTATCCTCAATGCACATGTTTGGCTCCCATTCTGAGTCGTTCGAAGTTCCTATACTTT [pfTopI(S1)] | not active | activity on this sequence ([2]; no signal in HEK293T nuclear extract without pfTopI spike-in): not active
TTATAATTTTTTGGAACTTCGAACGACTCAGAATGACTGTGAAGATCGCTTATCCTCAATGCACATGTTTGGCTCCCATTCTGAGTCGTTCGAAGTTCCAAAAAATT [pfTopI(S4)] | not active | –
ATTTTTCTAAGTCTTTTAGATCGAACGACTCAGAATGACTGTGAAGATCGCTTATCCTCAATGCACATGTTTGGCTCCCATTCTGAGTCGTTCGATCTAAAAGACTTAGA [pfTopI(S5)] | not active | –
GCCTGCAGGTCGACTCTAGAGGATCTAAAAGACTTAGAAAAATTTTTAGGCTCAATCTAGAAGTTCCTACTTAGA / ATTTTTCTAAGTAGGAACTTCTAGATTGAGCCTAAAAATTTTTCTAAGTCTTTTAGATCCTCTAGAGTCGACCTGCAGGC [OL62/OL63] | – | activity on this sequence [3]: active

For some assays here: No signal at the amounts used counts as a negative. Tags and fusion partners may be left off the protein sequences shown.
